Results: patent US20210179729A1 (University of California, published 2021)
Changes are numbered by the printed parent chain. These are yes or no findings as the source states them, for the method shown. Some results given as binding are weak or reduced against the parent protein; the word gives no strength. Values belong to the binder of their own block, whether it stands above or below them.

What was measured:
CDCP1 aas 30-367 (human) = CDCP1 aas 30-367 (human) (UniProt Q9H5V8); experiment: ELISA, CDCP1 specificity on fragments
CDCP1 aas 30-367 = target: T1, CDCP1 aas 30-367 (human, UniProt Q9H5V8 30-367); experiment: ELISA, CDCP1 specificity on fragments
T1 construct: range 30-367
T1 sequence (looked up): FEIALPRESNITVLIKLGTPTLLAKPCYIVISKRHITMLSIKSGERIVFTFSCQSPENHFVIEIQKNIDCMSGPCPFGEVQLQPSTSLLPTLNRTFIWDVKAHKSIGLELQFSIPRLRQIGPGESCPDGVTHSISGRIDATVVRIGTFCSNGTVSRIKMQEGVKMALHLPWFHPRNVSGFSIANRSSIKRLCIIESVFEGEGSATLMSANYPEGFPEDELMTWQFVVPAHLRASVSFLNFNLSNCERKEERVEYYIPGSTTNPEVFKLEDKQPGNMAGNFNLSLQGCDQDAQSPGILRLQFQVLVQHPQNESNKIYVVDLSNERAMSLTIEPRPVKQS

- binding (CDCP1 aas 30-367 (human)): binds
B1: CDCP1-004 Fab (Fab, V domains shown)
VH: EVQLVESGGGLVQPGGSLRLSCAASGFNISYYYMHWVRQAPGKGLEWVASIYSSYGYTSYADSVKGRFTISADTSKNTAYLQMNSLRAEDTAVYYCARVYYGFDYWGQGTLVTVSS
VL: DIQMTQSPSSLSASVGDRVTITCRASQSVSSAVAWYQQKPGKAPKLLIYSASSLYSGVPSRFSGSRSGTDFTLTISSLQPEDFATYYCQQSYYVYPITFGQGTKVEIK
notes: Tested as Fab

- binding (CDCP1 aas 30-367 (human)): binds
B2: CDCP1-003 Fab (Fab, V domains shown)
VH: B1 VH with Y33S, Y52S, S53P, S54Y, Y55S, V99G, G102A, F103L
VL: B1 VL with S91Y, V94F, I97F
notes: Tested as Fab

- binding (CDCP1 aas 30-367 (human)): binds
B3: CDCP1-008 Fab (Fab, V domains shown)
VH: B1 VH with Y31S, S53P, S54Y, Y55S, S59Y, V99A, G102A, F103M
VL: B1 VL
notes: Tested as Fab

- binding (CDCP1 aas 30-367): binds
B4: CDCP1-005 Fab (Fab, V domains shown)
VH: B1 VH with M34I, S53P, S54Y, Y57S, S59Y, V99A
VL: B1 VL with Y93W, V94S, Y95F
notes: Tested as Fab

- binding (CDCP1 aas 30-367 (human)): binds
B5: CDCP1-007 Fab (Fab, V domains shown)
VH: B1 VH with S30Y, Y31S, M34I, S53P, S54Y, V99A, F103M
VL: B1 VL with Y93F, V94Y, Y95W
notes: Tested as Fab
